Experimental data taken from PubChem BioAssay AID2685 (National Center for Advancing Translational Sciences (NCATS), 2010).
About 2,100 (0.66%) of roughly 320,000 compounds were called active. The shares of active, inactive and inconclusive entries below differ from those in the screen. Calls come from the whole dose curve; as a rule, active = well fitted inhibition curve with a large enough effect in the signal ratio, with a control signal flat (not every such curve was filed as active); inconclusive = small, poorly fitted or top-dose-only effect, or effect the other way, or a change in a side signal; inactive = flat fitted curve, though single readings scatter; the % refers to the signal ratio. Potencies of inconclusive entries are doubtful fits and often do not repeat.

Assay: qHTS Assay for Lipid Storage Modulators in Drosophila S3 Cells
Settings: BODIPY lipid droplet fluorescence, 18-24 h, cells fed with added oleic acid; lipid storage change, negative = inhibition: at 46.1 µM (top of the series) unless noted
How it was run: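 Drosophila S3 cells got compounds at several concentrations plus oleic acid (400 uM solution). Laser-scanning cytometry with 488 nm excitation read lipid droplets at 500-530 nm and cells at 575-640 nm. Percent activity was relative to 20 uM Triacsin C.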
% is set by controls: 0 for no effect and ±100 for the full control effect; potency is the fitted concentration of half-maximal effect.

Row | Structure (SMILES) | lipid storage change, negative = inhibition | Potency | outcome
1 | CCC1CCCCN1CCNS(=O)(=O)c1ccc2c(c1)oc(=O)n2C (centres undefined) | inconclusive: -1.33% |  | 
2 | COc1ccc(-c2csc3ncnc(N4CCN(S(=O)(=O)c5ccc(C)c(C)c5)CC4)c23)cc1 |  | inconclusive: 0.259 µM [activator, partial curve, poor fit] | 
3 | CCCC/C(O)=C1\C(=O)CC(C)(C)CC1=Nc1ccccc1OC | inconclusive: 200% |  | 
4 | O=C(C1CCN(S(=O)(=O)c2cccc3cccnc23)CC1)N1CCN(c2ccc(Cl)cc2)CC1 | inconclusive: 4.34% [at 9.22 µM] |  | 
5 | Cc1ccccc1NC(=O)COC(=O)c1cc(S(=O)(=O)N2CCOCC2)ccc1C | inconclusive: 23.3% |  | 
6 | O=c1c2c3c(sc2nc2n1CCC2)CCCCC3 | inconclusive: 5.41% |  | 
7 | COc1ccccc1NS(=O)(=O)c1cccc(NC(=O)Nc2ccc(Cl)cc2)c1 | inconclusive: -3.36% |  | 
8 | C/C(=N\NC(=O)c1cccc(C)c1)c1cccc(NC(=O)c2ccco2)c1 |  | inconclusive: 29.1 µM [cytotoxic, single point] | 
9 | CC(C)(C)C(=O)/C=C1\NC(=O)CS1 | inconclusive: 4.1% |  | 
10 | c1coc(C2OCC3(CO2)COC(c2ccco2)OC3)c1 (centres undefined) | inconclusive: -26.5% |  | 
11 | CC1(C)Cc2ccccc2/C(=C/C(=O)N2CCCCCC2)N1 |  | inconclusive: 4.11 µM [activator, single point] | 
12 | CCOc1ccc(CN(C)C(=O)c2ccc(NC(=O)CC3SC(N4CCCC4)=NC3=O)cc2)cc1 (centres undefined) |  | inconclusive: 0.0041 µM [activator, full curve, poor fit] | 
13 | Cc1ccc(-c2c(C#N)c(N)nc3c2CCCCC3)o1 |  | inconclusive: 0.651 µM [activator, full curve, poor fit] | 
14 | Cc1cccc(NC(=O)CCNS(=O)(=O)c2cccc3nsnc23)c1C | inconclusive: 6% |  | 
15 | Cc1ccc(NS(=O)(=O)N(C)C)cc1 |  |  | inactive [at 46.1 µM]
16 | CC(C)c1ccc(NC(=O)C2=CC=CN3CCS(=O)(=O)N=C23)cc1 | inconclusive: -49.2% |  | 
17 | O=C(CSc1nnc(CNC(=O)c2ccco2)o1)Nc1nc2ccccc2s1 | inconclusive: -21.7% |  | 
18 | O=C(CSCc1n[nH]c(=O)[nH]1)NCCOc1cccc(Oc2ccccc2)c1 | inconclusive: 78.7% |  | 
19 | Cc1ccc(S(=O)(=O)N(C)c2ccc(OCC(=O)Nc3ccc(C(=O)N(C)C)cc3)cc2)cc1C | inconclusive: -12.8% |  | 
20 | CC1CCCCN1CCCn1c(=S)[nH]c2ccccc2c1=O (centres undefined) | inconclusive: -38.1% |  | 
21 | O=[N+]([O-])c1cccc(CSc2ncnc3ccccc23)c1 | inconclusive: 44.8% |  | 
22 | CCC(O)(C(=O)Nc1ccccc1C(F)(F)F)c1ccccc1OC (centres undefined) |  | inconclusive: 16.4 µM [activator, single point] | 
23 | COc1ccc(-n2c(SC(CN3CCCCC3)CN3CCCC3=O)nc3ccccc3c2=O)cc1 (centres undefined) |  | inconclusive: 13 µM [falling, partial curve] | 
24 | O=C(CN1c2cccc3cccc(c23)S1(=O)=O)N1CCOCC1 |  | inconclusive: 6.51 µM [falling, partial curve, poor fit] | 
25 | O=C(O)c1ccc2ncsc2c1 | inconclusive: -10.1% |  | 

Row | Structure (SMILES) | lipid storage change, negative = inhibition | Potency | outcome
26 | Cc1cc(C)c(C(=O)OCC(=O)NCc2cccs2)c(C)c1 | inconclusive: -14.2% |  | 
27 | O=C(NCC(=O)N1CCCCCC1)c1ccc(Cl)cc1 |  | inconclusive: 29.1 µM [activator, single point] | 
28 | COc1ccc(CCNC(=O)CSc2nnc3c(n2)[nH]c2ccc(F)cc23)cc1OC |  | inconclusive: 6.51 µM [activator, single point] | 
29 | O=C(CCNS(=O)(=O)c1ccc(Cl)cc1)OCC(=O)c1ccc[nH]1 |  | inconclusive: 0.0517 µM [falling, full curve] | 
30 | Cc1ccccc1-c1nnn(CC(=O)Nc2ccc3c(c2)OCO3)n1 | inconclusive: -35.9% [at 0.369 µM] |  | 
31 | COC(=O)c1ccccc1NC(=O)CN1CCC(NC(=O)c2ccccc2C)CC1 | inconclusive: 12.9% |  | 
32 | COc1cc(NC(=O)COC(=O)CNC(=O)C2CCCCC2)cc(OC)c1 |  | inconclusive: 5.8 µM [activator, partial curve] | 
33 | CCOc1ccc(S(=O)(=O)N2CCCCC2)cc1NC(=O)CN1CCCC1c1cccs1 (centres undefined) |  | inconclusive: 0.58 µM [falling, single point] | 
34 | Cc1ccc(NC(=O)c2cncc(Br)c2)nc1 | inconclusive: 19.5% |  | 
35 | O=C(NCCc1ccccc1F)[C@@H]1CSC2c3ccccc3C(=O)N21 (some centres undefined) | inconclusive: 22.4% |  | 
36 | Cc1ccc(OC(=O)CCC(=O)N2CCc3ccccc32)cc1 |  | inconclusive: 0.92 µM [falling, full curve] | 
37 | CCOC(=O)C1=C(C)C/C(=N\NC(=O)c2ccccc2O)CC1 | inconclusive: -3.89% |  | 
38 | CC(C)NC(=O)CN1CCN(C(=O)CCl)CC1 | inconclusive: 1.91% |  | 
39 | CC(=O)Nc1ccc(NC(=O)C2CCN(S(=O)(=O)c3ccc4c(c3)OCCO4)CC2)cc1 |  | inconclusive: 4.11 µM [activator, full curve] | 
40 | Cc1nnc(SCC(=O)Nc2ccccc2)n1CCc1ccccc1 |  | inconclusive: 0.82 µM [activator, partial curve] | 
41 | COc1ccc(CCNC(=O)Nc2ccc(F)cc2F)cc1OC |  | inconclusive: 7.31 µM [falling, partial curve] | 
42 | CCOC(=O)N1CCC(NC(=O)C2CCN(C(=O)c3cc4sccc4n3CC)CC2)CC1 | inconclusive: -11.9% |  | 
43 | NC(=O)CSc1nnc(Cc2ccc3c(c2)OCO3)n1C1CCCCC1 | inconclusive: 13.2% |  | 
44 | CCOc1ccc(NC(=O)/C(C#N)=C/c2ccc(N3CCCC3)c(C)c2)cc1 | inconclusive: -19.7% |  | 
45 | CC1CN(CC(O)COC2CCC(C(C)(C)C)CC2)CC(C)O1 (centres undefined) | inconclusive: 2.57% |  | 
46 | COc1ccc2[nH]c(=O)c(CN(Cc3cccnc3)C(=S)NCC3CCCO3)cc2c1 (centres undefined) | inconclusive: 4.67% |  | 
47 | CC1(C)C(=S)N(Cc2ccccc2)c2ccccc21 |  | inconclusive: 6.51 µM [activator, single point] | 
48 | CC(C)CC(=O)/C=C/n1c(=S)oc2ccccc21 |  | active: 23.1 µM | 
49 | COc1cc(NC(=O)c2cc(-c3ccccc3)on2)cc(OC)c1OC | inconclusive: -42.7% |  | 
50 | CCOc1cc(S(=O)(=O)NCc2ccc3c(c2)OCO3)ccc1F |  | inconclusive: 20.6 µM [activator, single point] | 

Row | Structure (SMILES) | lipid storage change, negative = inhibition | Potency | outcome
51 | CC(=O)Oc1ccc(C(=O)Nc2ccccc2C(=O)Nc2ccc(C(=O)O)cc2)cc1 |  | inconclusive: 4.11 µM [activator, single point] | 
52 | Cc1cccc(C)c1NC(=O)CN(C)C(=O)CSCc1c(C)noc1C | inconclusive: 26.6% |  | 
53 | Fc1ccc(N2CCN(/C=C/c3nnnn3-c3ccccc3)CC2)cc1 |  | inconclusive: 18.4 µM [falling, partial curve, poor fit] | 
54 | COc1ccc(OC(C)C(=O)Nc2ccccc2C(F)(F)F)cc1 (centres undefined) | inconclusive: 28.5% |  | 
55 | O=C(CSc1nc(-c2ccc(F)cc2)nc2c1Cc1ccccc1O2)Nc1ccc(C(=O)O)cc1 | inactive: 4.47% |  | 
56 | CC(C)[C@H](NC(=O)N1CC(=O)Nc2ccccc21)C(=O)N[C@@H](Cc1ccccc1)C(=O)O |  | inconclusive: 3.66 µM [activator, full curve, poor fit] | 
57 | CC(=O)NC(Cc1c[nH]c2ccccc12)C(=O)OCC(=O)N1CCCCCC1 (centres undefined) | inconclusive: -43.8% [at 0.00295 µM] |  | 
58 | N#C/C(=C\c1c[nH]c2ccccc12)C(=O)NC1CC1 | inconclusive: -22.4% |  | 
59 | O=C(Nc1cccc(Cl)c1N1CCOCC1)c1cc([N+](=O)[O-])ccc1N1CCOCC1 | inconclusive: -28.8% |  | 
60 | CS(=O)(=O)c1ccc(Cl)c(NC(=O)CSc2nnc(-c3cccs3)n2N)c1 |  | inconclusive: 20.6 µM [activator, partial curve, poor fit] | 
61 | CC(C)CN(C(=O)CCC1CCCCC1)c1c(N)n(CC(C)C)c(=O)[nH]c1=O | inconclusive: 29.4% |  | 
62 | Cc1cc(C)cc(N(CC(=O)NCc2ccco2)C(=O)c2snc(C(N)=O)c2N)c1 |  | inconclusive: 29.1 µM [falling, single point] | 
63 | Cc1cccc(C)c1NC(=O)CSCCO | inconclusive: -6.35% |  | 
64 | O=C1c2ccncc2C(=O)N1CNc1ccc(Cl)cc1 | inconclusive: -12.5% |  | 
65 | O=C(NCCc1cccc(Cl)c1)c1cccc(-n2cnnn2)c1 |  | inconclusive: 10.3 µM [falling, partial curve] | 
66 | CCOc1ccc(CCNC(=O)COC(=O)c2ccc(OC)c(OC)c2OC)cc1OCC |  | inconclusive: 29.1 µM [falling, partial curve, poor fit] | 
67 | COCCNC(=O)C(OC(=O)c1cc2oc(C)cc2n1C)C(C)C (centres undefined) | inactive: -24.2% |  | 
68 | O=C1CSC(=S)N1 | inconclusive: 31.9% |  | 
69 | Cc1nc(NC(=O)CSc2nnnn2C)sc1C | inconclusive: 7.07% |  | 
70 | CCCC12CN3CC(CCC)(CN(C1)C3c1ccco1)C2=O (centres undefined) | inconclusive: -16.3% |  | 
71 | CCc1c(C)nc(N2CCN(c3ccc(OC)cc3)CC2)[nH]c1=O |  | inconclusive: 23.1 µM [activator, partial curve, poor fit] | 
72 | O=C(NNC(=O)c1ccccc1C(=O)O)c1ccc(S(=O)(=O)N2CCCCC2)cc1 | inconclusive: 9.59% |  | 
73 | CCN(CC)C(=O)/C(=C\c1cccc([N+](=O)[O-])c1)NC(=O)c1ccco1 |  | inconclusive: 29.1 µM [activator, single point] | 
74 | COc1cc(OC)c(OC)cc1CN1CCN(Cc2ccc(C(F)(F)F)cc2)CC1 | inconclusive: -22.5% |  | 

An excerpt from above in order of molar mass, falling:
Row | Structure (SMILES) | lipid storage change, negative = inhibition | Potency | outcome
55 | O=C(CSc1nc(-c2ccc(F)cc2)nc2c1Cc1ccccc1O2)Nc1ccc(C(=O)O)cc1 | inactive: 4.47% |  | 
59 | O=C(Nc1cccc(Cl)c1N1CCOCC1)c1cc([N+](=O)[O-])ccc1N1CCOCC1 | inconclusive: -28.8% |  | 
60 | CS(=O)(=O)c1ccc(Cl)c(NC(=O)CSc2nnc(-c3cccs3)n2N)c1 |  | inconclusive: 20.6 µM [activator, partial curve, poor fit] | 
62 | Cc1cc(C)cc(N(CC(=O)NCc2ccco2)C(=O)c2snc(C(N)=O)c2N)c1 |  | inconclusive: 29.1 µM [falling, single point] | 
53 | Fc1ccc(N2CCN(/C=C/c3nnnn3-c3ccccc3)CC2)cc1 |  | inconclusive: 18.4 µM [falling, partial curve, poor fit] | 
